PubChem BioAssay AID1259405 | NCATS – 2018
Test: 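Knock-downs that lift recombinant protein yield in hamster ovary cells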 (primary screen). Cell system: Chinese hamster CHO-K1 ovary cells with stable secreted eGFP expression. Reagent: single siRNA against mouse genes, 0.8 pmol siRNA per well (2 µl of 400 nM stock). Time to read-out: 3 days. Read-out: 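Percent of the per-plate non-targeting control median for intracellular GFP per well by laser scanning cytometry and for cell viability by ATP luminescence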. Scale: GFP, % of control: higher = more GFP per well, higher productivity; viability (ATP), % of control: higher = more viable cells (more ATP). Call rule: 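a knock-down is called active if GFP reaches 120% or more of non-targeting control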.
Shown is an unselected part of about 50,000 deposited reagents. About 4,000 of all reagents (8%) were called active. 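Mouse siRNA library applied to hamster cells; one well for each siRNA.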

| Target gene | PubChem SID | GFP, % of control | viability (ATP), % of control | call |
| --- | --- | --- | --- | --- |
| Ecscr | SID363540538 | 55.3 | 51.7 | inactive |
| Ecscr | SID363542989 | 78 | 64.3 | inactive |
| Ecscr | SID363552482 | 77.2 | 68.3 | inactive |
| Slc17a2 | SID363574675 | 87.4 | 95 | inactive |
| Slc17a2 | SID363575731 | 48.2 | 60.9 | inactive |
| Slc17a2 | SID363580307 | 92.7 | 69.7 | inactive |
| M1ap (meiosis 1 associated protein) | SID363539735 | 62.3 | 84.4 | inactive |
| M1ap (meiosis 1 associated protein) | SID363561036 | 0 | 332 | inactive |
| M1ap (meiosis 1 associated protein) | SID363565126 | 88.1 | 69.8 | inactive |
| Marveld2 (MARVEL (membrane-associating) domain containing 2) | SID363562137 | 103 | 83.2 | inactive |
| Marveld2 (MARVEL (membrane-associating) domain containing 2) | SID363567275 | 67.8 | 82 | inactive |
| Marveld2 (MARVEL (membrane-associating) domain containing 2) | SID363584632 | 53.2 | 31.9 | inactive |
| Slc25a16 | SID363569950 | 62.8 | 76.7 | inactive |
| Slc25a16 | SID363576990 | 53.8 | 49.4 | inactive |
| Slc25a16 | SID363578398 | 75.3 | 55.2 | inactive |
| Dnajc18 (DnaJ heat shock protein family (Hsp40) member C18) | SID363541628 | 74.4 | 76.6 | inactive |
| Dnajc18 (DnaJ heat shock protein family (Hsp40) member C18) | SID363553220 | 73 | 66.9 | inactive |
| Dnajc18 (DnaJ heat shock protein family (Hsp40) member C18) | SID363566544 | 83.6 | 64.7 | inactive |
| Tpra1 (transmembrane protein, adipocyte asscociated 1) | SID363573028 | 57.4 | 66.4 | inactive |
| Tpra1 (transmembrane protein, adipocyte asscociated 1) | SID363577604 | 55.7 | 74.9 | inactive |
| Tpra1 (transmembrane protein, adipocyte asscociated 1) | SID363581124 | 69.6 | 35.7 | inactive |
| Rgs9 (regulator of G-protein signaling 9) | SID363545194 | 54.9 | 50 | inactive |
| Rgs9 (regulator of G-protein signaling 9) | SID363548707 | 64.1 | 69.2 | inactive |
| Rgs9 (regulator of G-protein signaling 9) | SID363562513 | 68.8 | 47.5 | inactive |
| Pcdhb20 (protocadherin beta 20) | SID363573272 | 73.7 | 73.9 | inactive |
| Pcdhb20 (protocadherin beta 20) | SID363588511 | 108 | 79.5 | inactive |
| Or5t18 (olfactory receptor family 5 subfamily T member 18) | SID363544474 | 77.6 | 49.6 | inactive |
| Or5t18 (olfactory receptor family 5 subfamily T member 18) | SID363550802 | 66.7 | 85.3 | inactive |
| Or5t18 (olfactory receptor family 5 subfamily T member 18) | SID363557351 | 59.9 | 82.2 | inactive |
| Lrrc8a (leucine rich repeat containing 8A VRAC subunit A) | SID363540287 | 79.5 | 73.1 | inactive |
| Lrrc8a (leucine rich repeat containing 8A VRAC subunit A) | SID363542039 | 24.1 | 31.2 | inactive |
| Lrrc8a (leucine rich repeat containing 8A VRAC subunit A) | SID363566955 | 79.2 | 26.6 | inactive |
| Krcc1 (lysine-rich coiled-coil 1) | SID363542927 | 75.2 | 57 | inactive |
| Krcc1 (lysine-rich coiled-coil 1) | SID363546444 | 55.8 | 70.3 | inactive |
| Krcc1 (lysine-rich coiled-coil 1) | SID363548200 | 54 | 89.2 | inactive |
| Sgpl1 (sphingosine phosphate lyase 1) | SID363572919 | 64.2 | 57.6 | inactive |
| Sgpl1 (sphingosine phosphate lyase 1) | SID363577495 | 62.3 | 71.4 | inactive |
| Sgpl1 (sphingosine phosphate lyase 1) | SID363581015 | 93.1 | 67.1 | inactive |
| Ppp6r1 (protein phosphatase 6, regulatory subunit 1) | SID363547867 | 119 | 62.5 | inactive |
| Ppp6r1 (protein phosphatase 6, regulatory subunit 1) | SID363558636 | 84.3 | 78.4 | inactive |
| Ppp6r1 (protein phosphatase 6, regulatory subunit 1) | SID363560394 | 59.6 | 105 | inactive |
| Or10j7 (olfactory receptor family 10 subfamily J member 7) | SID363544491 | 81.6 | 85.6 | inactive |
| Or10j7 (olfactory receptor family 10 subfamily J member 7) | SID363550819 | 71.7 | 83 | inactive |
| Or10j7 (olfactory receptor family 10 subfamily J member 7) | SID363557368 | 87.7 | 96.4 | inactive |
| Fancl (Fanconi anemia, complementation group L) | SID363539954 | 65.4 | 78.4 | inactive |
| Fancl (Fanconi anemia, complementation group L) | SID363561255 | 105 | 90 | inactive |
| Fancl (Fanconi anemia, complementation group L) | SID363564291 | 62.6 | 67.6 | inactive |
| 1700006J14Rik (RIKEN cDNA 1700006J14 gene) | SID363540829 | 86.8 | 102 | inactive |
| 1700006J14Rik (RIKEN cDNA 1700006J14 gene) | SID363543280 | 80 | 80 | inactive |
| 1700006J14Rik (RIKEN cDNA 1700006J14 gene) | SID363552773 | 104 | 50.2 | inactive |
| Crybg1 (crystallin beta-gamma domain containing 1) | SID363546575 | 67.7 | 67.2 | inactive |
| Crybg1 (crystallin beta-gamma domain containing 1) | SID363548331 | 64.1 | 84.8 | inactive |
| Crybg1 (crystallin beta-gamma domain containing 1) | SID363560509 | 95.3 | 101 | inactive |
| BC051665 (cDNA sequence BC051665) | SID363547264 | 70 | 79.6 | inactive |
| BC051665 (cDNA sequence BC051665) | SID363558033 | 44.7 | 50.5 | inactive |
| BC051665 (cDNA sequence BC051665) | SID363559791 | 47.9 | 74.8 | inactive |
| Wars1 (tryptophanyl-tRNA synthetase1) | SID363584543 | 60.3 | 75.3 | inactive |
| Wars1 (tryptophanyl-tRNA synthetase1) | SID363589573 | 68.8 | 55.1 | inactive |
| Hibch (3-hydroxyisobutyryl-Coenzyme A hydrolase) | SID363575069 | 129 | 138 | active |
| Hibch (3-hydroxyisobutyryl-Coenzyme A hydrolase) | SID363580701 | 60.1 | 77.4 | inactive |
| Hibch (3-hydroxyisobutyryl-Coenzyme A hydrolase) | SID363582813 | 93.2 | 61.6 | inactive |
| Sp4 (trans-acting transcription factor 4) | SID363569029 | 67.7 | 43.6 | inactive |
| Sp4 (trans-acting transcription factor 4) | SID363583461 | 53.1 | 59.9 | inactive |
| Stx3 (syntaxin 3) | SID363582458 | 113 | 90.8 | inactive |
| Stx3 (syntaxin 3) | SID363584218 | 93.9 | 61.8 | inactive |
| Dsg4 (desmoglein 4) | SID363573391 | 92.3 | 98.9 | inactive |
| Dsg4 (desmoglein 4) | SID363588630 | 94.4 | 81.8 | inactive |
| Dppa2 (developmental pluripotency associated 2) | SID363539587 | 87.7 | 73.5 | inactive |
| Dppa2 (developmental pluripotency associated 2) | SID363560888 | 56.6 | 73.1 | inactive |
| Dppa2 (developmental pluripotency associated 2) | SID363564978 | 57.5 | 29.7 | inactive |
| Or6x1 (olfactory receptor family 6 subfamily X member 1) | SID363544782 | 48.8 | 50.2 | inactive |
| Or6x1 (olfactory receptor family 6 subfamily X member 1) | SID363551110 | 70.8 | 75.4 | inactive |
| Or6x1 (olfactory receptor family 6 subfamily X member 1) | SID363557659 | 64.2 | 72.1 | inactive |
| Sap30 (Sin3A associated protein 30) | SID363569231 | 128 | 140 | active |
| Sap30 (Sin3A associated protein 30) | SID363583663 | 58.7 | 74.8 | inactive |
| Prkcg (protein kinase C, gamma) | SID363545690 | 42 | 33.6 | inactive |
| Prkcg (protein kinase C, gamma) | SID363549203 | 83.4 | 101 | inactive |
| Prkcg (protein kinase C, gamma) | SID363563009 | 46.3 | 39 | inactive |
| Poldip2 (polymerase (DNA-directed), delta interacting protein 2) | SID363554495 | 74.6 | 88.9 | inactive |
| Poldip2 (polymerase (DNA-directed), delta interacting protein 2) | SID363567942 | 119 | 81.9 | inactive |
| Poldip2 (polymerase (DNA-directed), delta interacting protein 2) | SID363586001 | 55.4 | 71.3 | inactive |
| Usp6nl (USP6 N-terminal like) | SID363545634 | 35.2 | 18.2 | inactive |
| Usp6nl (USP6 N-terminal like) | SID363549147 | 40.4 | 32.7 | inactive |
| Usp6nl (USP6 N-terminal like) | SID363562953 | 72.7 | 54 | inactive |
